For test [1], the target named is T1, full-length SEC–HA (35S::SEC–3xHA) (Arabidopsis thaliana) (UniProt Q9M8Y0).
T1 sequence: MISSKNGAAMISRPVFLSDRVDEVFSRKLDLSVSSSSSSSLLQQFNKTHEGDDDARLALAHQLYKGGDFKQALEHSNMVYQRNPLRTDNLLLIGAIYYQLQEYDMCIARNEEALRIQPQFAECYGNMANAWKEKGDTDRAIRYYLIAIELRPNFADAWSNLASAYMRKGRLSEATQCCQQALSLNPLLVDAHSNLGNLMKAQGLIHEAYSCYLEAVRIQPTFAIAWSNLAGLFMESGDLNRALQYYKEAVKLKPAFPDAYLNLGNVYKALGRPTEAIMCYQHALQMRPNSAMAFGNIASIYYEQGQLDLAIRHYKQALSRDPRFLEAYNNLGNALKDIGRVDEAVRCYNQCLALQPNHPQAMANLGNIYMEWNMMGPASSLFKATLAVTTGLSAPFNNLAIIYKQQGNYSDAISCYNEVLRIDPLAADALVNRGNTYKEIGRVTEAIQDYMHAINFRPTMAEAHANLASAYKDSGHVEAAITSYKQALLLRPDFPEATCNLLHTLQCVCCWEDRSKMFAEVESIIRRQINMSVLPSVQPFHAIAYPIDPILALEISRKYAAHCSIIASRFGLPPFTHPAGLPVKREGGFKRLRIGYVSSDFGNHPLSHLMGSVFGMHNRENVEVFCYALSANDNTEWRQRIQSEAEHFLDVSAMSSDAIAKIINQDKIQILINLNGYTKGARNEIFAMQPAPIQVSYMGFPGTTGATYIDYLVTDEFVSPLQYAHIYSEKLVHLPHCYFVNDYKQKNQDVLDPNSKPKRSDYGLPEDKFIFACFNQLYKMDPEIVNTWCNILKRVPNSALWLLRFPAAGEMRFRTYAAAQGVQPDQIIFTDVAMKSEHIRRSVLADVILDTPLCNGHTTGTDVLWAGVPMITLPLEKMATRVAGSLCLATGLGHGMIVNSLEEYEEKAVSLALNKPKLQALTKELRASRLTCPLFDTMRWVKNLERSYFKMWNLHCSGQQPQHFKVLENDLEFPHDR
Put plainly: co-IP; N. benthamiana leaves co-infiltrated with 35S::SPT–3xFLAG and 35S::SEC–3xHA or 35S::SPY–3xHA (with P19), 48 h; total protein extract immunoprecipitated with anti-HA magnetic beads; blots with anti-HA and anti-FLAG.

The target in test [2] is T2, full-length SPY–HA (35S::SPY–3xHA) (Arabidopsis thaliana) (UniProt Q96301).
T2 sequence: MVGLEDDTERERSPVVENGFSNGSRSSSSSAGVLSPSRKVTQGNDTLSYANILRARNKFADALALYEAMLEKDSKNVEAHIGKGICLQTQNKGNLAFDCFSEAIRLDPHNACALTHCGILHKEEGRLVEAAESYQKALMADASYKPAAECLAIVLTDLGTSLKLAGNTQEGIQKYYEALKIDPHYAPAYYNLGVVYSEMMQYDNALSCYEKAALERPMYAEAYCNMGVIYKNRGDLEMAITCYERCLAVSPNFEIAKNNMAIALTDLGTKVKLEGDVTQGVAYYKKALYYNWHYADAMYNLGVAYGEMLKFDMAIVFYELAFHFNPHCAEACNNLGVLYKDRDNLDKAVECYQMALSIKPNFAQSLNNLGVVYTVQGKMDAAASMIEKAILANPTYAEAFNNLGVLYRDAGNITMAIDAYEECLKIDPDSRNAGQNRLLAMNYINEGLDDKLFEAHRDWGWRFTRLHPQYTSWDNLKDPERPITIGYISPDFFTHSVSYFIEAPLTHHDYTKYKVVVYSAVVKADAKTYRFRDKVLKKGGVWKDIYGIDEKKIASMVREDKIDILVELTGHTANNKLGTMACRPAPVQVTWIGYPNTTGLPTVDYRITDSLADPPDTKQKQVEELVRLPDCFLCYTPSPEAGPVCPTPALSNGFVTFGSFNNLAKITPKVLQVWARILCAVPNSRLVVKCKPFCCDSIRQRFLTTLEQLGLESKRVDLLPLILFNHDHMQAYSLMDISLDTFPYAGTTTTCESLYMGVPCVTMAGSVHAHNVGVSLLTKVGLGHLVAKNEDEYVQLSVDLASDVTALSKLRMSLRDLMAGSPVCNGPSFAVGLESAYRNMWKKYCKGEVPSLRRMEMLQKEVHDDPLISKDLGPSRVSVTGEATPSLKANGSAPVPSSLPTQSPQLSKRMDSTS
The test is described as above.

No constants are given. Whether binding was seen depends on the method and setting. In cells and extracts the contact can be indirect. Some results given as binding are weak or reduced against the parent protein; the word gives no strength. Tags and fused reporters may be left off the sequences shown.

B1: full-length SPT–FLAG (35S::SPT–3xFLAG) (protein, UniProt Q9FUA4 1-373)
chain: MISQREEREEKKQRVMGDKKLISSSSSSSVYDTRINHHLHHPPSSSDEISQFLRHIFDRSSPLPSYYSPATTTTTASLIGVHGSGDPHADNSRSLVSHHPPSDSVLMSKRVGDFSEVLIGGGSGSAAACFGFSGGGNNNNVQGNSSGTRVSSSSVGASGNETDEYDCESEEGGEAVVDEAPSSKSGPSSRSSSKRCRAAEVHNLSEKRRRSRINEKMKALQSLIPNSNKTDKASMLDEAIEYLKQLQLQVQMLTMRNGINLHPLCLPGTTLHPLQLSQIRPPEATNDPLLNHTNQFASTSNAPEMINTVASSYALEPSIRSHFGPFPLLTSPVEMSREGGLTHPRLNIGHSNANITGEQALFDGQPDLKDRIT
As to B1, the binding result in test [1] and in test [2] was “binds” in each case.
